Test results as given in patent US20250017962A1 (US Dept. of Health and Human Services, published 2025).
Results are given in words; binding and its absence hold for the method and conditions named. Some entries that bind do so weakly or less than the wild type.

By UniProt entry, the sequences of proteins in these tests, tags left out. Residues count along the entry.
UniProt P51654, residues 25-559: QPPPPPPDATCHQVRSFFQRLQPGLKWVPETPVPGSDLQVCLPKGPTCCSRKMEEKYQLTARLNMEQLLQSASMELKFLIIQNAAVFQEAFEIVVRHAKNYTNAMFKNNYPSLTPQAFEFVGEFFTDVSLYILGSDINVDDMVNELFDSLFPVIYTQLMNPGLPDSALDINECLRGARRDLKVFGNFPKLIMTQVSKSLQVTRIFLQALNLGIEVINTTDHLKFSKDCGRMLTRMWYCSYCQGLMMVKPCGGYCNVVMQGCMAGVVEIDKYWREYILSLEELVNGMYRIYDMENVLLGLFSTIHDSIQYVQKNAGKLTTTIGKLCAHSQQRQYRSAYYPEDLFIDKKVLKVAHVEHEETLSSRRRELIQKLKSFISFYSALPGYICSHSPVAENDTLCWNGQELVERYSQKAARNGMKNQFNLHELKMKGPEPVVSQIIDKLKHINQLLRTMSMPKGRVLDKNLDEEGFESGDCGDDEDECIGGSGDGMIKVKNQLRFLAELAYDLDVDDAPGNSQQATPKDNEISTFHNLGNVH

B1: HN3-IgG4H-CD28TM CAR (other)
chain: HMQVQLVQSGGGLVQPGGSLRLSCAASYFDFDSYEMSWVRQAPGKGLEWIGSIYHSGSTYYNPSLKSRVTISRDNSKNTLYLQMNTLRAEDTATYYCARVNMDRFDYWGQGTLVTVSSTSESKYGPPCPPCPFWVLVVVGGVLACYSLLVTVAFIIFWVKRGRKKLLYIFKQPFMRPVQTTQEEDGCSCRFPEEEEGGCELRVKFSRSADAPAYQQGQNQLYNELNLGRREEYDVLDKRRGRDPEMGGKPRRKNPQEGLYNELQKDKMAEAYSEIGMKGERRRGKGHDGLYQGLSTATKDTYDALHMQALPPR
notes: also called HN3-IgG4-CD28TM; HN3-IgGH-CD28TM
B2: HN3-IgG4H-CD8TM CAR (other)
chain: HMQVQLVQSGGGLVQPGGSLRLSCAASYFDFDSYEMSWVRQAPGKGLEWIGSIYHSGSTYYNPSLKSRVTISRDNSKNTLYLQMNTLRAEDTATYYCARVNMDRFDYWGQGTLVTVSSTSESKYGPPCPPCPIYIWAPLAGTCGVLLLSLVITKRGRKKLLYIFKQPFMRPVQTTQEEDGCSCRFPEEEEGGCELRVKFSRSADAPAYQQGQNQLYNELNLGRREEYDVLDKRRGRDPEMGGKPRRKNPQEGLYNELQKDKMAEAYSEIGMKGERRRGKGHDGLYQGLSTATKDTYDALHMQALPPR

How the values were obtained:
[1] = biological target: GPC3 tagged with human Fc (GPC3-hFc) (UniProt P51654); assay: flow cytometry, GPC3-hFc on CAR-expressing Jurkat cells
[2] = biological target: GPC3 tagged with human Fc (GPC3-hFc) (UniProt P51654); assay: Jurkat binding assay, flow cytometry

Binder	binding [1]	binding [2]
B1	binds	binds
B2	binds	binds
